# These are yes or no findings as the source states them, for the method shown. Binding seen in cells or lysates may run through a third protein. Some binding calls cover weakened binding; strength is not graded here.
# Sequences of proteins named here, by UniProt entry; tags and fusion partners are left off.
# UniProt P17778: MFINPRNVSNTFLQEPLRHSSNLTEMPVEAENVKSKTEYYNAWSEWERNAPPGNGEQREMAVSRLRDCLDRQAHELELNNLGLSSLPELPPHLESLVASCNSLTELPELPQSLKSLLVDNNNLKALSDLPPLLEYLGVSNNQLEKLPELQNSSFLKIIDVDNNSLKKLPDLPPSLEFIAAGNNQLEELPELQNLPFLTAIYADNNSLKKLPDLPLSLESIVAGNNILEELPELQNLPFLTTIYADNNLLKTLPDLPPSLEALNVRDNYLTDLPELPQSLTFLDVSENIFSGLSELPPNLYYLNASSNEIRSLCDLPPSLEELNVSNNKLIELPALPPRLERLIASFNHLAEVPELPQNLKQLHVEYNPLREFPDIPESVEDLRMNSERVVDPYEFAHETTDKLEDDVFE
# UniProt Q16512: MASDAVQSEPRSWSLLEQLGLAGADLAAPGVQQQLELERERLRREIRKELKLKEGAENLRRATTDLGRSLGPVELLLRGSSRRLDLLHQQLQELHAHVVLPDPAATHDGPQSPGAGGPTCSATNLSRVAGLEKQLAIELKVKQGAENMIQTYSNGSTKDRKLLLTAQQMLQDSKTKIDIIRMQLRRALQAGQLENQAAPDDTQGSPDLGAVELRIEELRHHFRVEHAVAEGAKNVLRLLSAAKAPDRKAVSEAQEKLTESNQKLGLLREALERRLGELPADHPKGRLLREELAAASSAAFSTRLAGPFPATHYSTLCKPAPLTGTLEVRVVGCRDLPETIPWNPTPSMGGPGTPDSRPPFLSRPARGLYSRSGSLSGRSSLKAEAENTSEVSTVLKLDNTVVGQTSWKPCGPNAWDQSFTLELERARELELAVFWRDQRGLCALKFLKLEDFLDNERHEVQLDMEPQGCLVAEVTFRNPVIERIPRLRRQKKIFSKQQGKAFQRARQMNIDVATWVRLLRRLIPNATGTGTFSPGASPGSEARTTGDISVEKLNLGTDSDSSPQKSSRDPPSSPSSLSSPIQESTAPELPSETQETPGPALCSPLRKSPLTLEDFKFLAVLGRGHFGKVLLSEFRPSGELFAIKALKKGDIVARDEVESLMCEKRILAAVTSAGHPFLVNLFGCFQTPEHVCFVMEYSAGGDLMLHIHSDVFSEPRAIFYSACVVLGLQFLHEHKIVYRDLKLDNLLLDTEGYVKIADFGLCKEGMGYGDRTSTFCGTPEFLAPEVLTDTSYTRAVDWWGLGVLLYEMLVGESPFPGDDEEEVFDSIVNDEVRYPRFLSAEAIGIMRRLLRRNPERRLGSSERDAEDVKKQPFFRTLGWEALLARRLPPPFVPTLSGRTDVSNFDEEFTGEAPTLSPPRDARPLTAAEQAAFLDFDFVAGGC
# UniProt P70268: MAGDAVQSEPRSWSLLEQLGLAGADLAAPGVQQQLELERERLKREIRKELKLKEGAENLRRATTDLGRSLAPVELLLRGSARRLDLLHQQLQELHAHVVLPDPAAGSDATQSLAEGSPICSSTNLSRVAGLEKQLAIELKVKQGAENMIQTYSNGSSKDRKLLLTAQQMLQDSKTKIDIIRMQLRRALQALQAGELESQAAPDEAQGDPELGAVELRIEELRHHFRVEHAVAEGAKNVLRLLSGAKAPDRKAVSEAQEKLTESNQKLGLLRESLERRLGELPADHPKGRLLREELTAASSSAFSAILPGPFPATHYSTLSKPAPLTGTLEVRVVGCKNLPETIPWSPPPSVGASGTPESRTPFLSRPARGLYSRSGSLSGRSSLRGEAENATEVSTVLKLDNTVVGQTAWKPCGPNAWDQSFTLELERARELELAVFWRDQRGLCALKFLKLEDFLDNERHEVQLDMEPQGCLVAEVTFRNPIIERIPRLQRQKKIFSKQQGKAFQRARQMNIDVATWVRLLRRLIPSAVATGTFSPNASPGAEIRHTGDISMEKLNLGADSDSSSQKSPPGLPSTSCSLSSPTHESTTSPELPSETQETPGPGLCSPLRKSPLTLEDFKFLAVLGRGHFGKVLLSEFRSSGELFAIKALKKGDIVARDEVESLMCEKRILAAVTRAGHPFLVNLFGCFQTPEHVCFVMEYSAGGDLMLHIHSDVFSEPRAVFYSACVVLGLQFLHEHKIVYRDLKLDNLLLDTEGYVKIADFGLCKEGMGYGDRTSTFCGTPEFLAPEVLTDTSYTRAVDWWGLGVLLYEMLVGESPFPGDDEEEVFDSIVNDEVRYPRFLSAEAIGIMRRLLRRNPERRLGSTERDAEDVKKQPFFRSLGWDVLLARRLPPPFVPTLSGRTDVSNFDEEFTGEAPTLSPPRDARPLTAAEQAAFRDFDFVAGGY
# UniProt Q15418: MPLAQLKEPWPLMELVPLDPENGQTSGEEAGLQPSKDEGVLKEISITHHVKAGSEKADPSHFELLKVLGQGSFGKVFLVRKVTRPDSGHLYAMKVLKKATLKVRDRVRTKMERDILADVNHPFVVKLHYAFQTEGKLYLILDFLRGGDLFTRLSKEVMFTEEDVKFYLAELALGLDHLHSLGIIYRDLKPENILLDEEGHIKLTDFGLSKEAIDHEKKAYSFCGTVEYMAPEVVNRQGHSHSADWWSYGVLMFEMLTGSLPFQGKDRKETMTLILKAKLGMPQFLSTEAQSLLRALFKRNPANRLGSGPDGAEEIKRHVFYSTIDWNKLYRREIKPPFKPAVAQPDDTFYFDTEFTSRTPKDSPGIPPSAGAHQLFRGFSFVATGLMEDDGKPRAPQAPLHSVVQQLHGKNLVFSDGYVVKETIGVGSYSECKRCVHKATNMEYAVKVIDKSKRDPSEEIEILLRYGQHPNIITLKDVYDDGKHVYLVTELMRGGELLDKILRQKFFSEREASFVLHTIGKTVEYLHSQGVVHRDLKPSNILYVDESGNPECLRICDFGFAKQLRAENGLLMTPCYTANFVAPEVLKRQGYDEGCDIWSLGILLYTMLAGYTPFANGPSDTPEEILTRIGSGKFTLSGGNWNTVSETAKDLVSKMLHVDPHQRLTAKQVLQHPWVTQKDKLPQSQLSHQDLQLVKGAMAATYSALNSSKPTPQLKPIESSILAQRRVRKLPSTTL
# UniProt P18653: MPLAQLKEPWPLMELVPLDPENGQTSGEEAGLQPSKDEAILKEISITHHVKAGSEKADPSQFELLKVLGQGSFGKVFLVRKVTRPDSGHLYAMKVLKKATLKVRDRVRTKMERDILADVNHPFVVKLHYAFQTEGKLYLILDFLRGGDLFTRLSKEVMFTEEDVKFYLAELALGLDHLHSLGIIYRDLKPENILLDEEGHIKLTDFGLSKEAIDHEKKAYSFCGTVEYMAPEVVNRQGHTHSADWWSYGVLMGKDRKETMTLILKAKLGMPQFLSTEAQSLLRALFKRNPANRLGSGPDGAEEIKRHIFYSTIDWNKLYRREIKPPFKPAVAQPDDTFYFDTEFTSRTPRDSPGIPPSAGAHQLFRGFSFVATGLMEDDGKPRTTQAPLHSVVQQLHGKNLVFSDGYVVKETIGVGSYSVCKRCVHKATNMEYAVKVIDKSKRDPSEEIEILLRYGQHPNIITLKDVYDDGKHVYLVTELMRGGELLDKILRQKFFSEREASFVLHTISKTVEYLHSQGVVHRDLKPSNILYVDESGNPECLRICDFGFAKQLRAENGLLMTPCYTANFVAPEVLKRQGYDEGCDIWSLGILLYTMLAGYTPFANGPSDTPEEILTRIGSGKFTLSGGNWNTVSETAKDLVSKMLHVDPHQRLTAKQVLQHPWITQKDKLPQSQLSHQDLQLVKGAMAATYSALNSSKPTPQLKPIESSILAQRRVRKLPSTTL
# UniProt P46940: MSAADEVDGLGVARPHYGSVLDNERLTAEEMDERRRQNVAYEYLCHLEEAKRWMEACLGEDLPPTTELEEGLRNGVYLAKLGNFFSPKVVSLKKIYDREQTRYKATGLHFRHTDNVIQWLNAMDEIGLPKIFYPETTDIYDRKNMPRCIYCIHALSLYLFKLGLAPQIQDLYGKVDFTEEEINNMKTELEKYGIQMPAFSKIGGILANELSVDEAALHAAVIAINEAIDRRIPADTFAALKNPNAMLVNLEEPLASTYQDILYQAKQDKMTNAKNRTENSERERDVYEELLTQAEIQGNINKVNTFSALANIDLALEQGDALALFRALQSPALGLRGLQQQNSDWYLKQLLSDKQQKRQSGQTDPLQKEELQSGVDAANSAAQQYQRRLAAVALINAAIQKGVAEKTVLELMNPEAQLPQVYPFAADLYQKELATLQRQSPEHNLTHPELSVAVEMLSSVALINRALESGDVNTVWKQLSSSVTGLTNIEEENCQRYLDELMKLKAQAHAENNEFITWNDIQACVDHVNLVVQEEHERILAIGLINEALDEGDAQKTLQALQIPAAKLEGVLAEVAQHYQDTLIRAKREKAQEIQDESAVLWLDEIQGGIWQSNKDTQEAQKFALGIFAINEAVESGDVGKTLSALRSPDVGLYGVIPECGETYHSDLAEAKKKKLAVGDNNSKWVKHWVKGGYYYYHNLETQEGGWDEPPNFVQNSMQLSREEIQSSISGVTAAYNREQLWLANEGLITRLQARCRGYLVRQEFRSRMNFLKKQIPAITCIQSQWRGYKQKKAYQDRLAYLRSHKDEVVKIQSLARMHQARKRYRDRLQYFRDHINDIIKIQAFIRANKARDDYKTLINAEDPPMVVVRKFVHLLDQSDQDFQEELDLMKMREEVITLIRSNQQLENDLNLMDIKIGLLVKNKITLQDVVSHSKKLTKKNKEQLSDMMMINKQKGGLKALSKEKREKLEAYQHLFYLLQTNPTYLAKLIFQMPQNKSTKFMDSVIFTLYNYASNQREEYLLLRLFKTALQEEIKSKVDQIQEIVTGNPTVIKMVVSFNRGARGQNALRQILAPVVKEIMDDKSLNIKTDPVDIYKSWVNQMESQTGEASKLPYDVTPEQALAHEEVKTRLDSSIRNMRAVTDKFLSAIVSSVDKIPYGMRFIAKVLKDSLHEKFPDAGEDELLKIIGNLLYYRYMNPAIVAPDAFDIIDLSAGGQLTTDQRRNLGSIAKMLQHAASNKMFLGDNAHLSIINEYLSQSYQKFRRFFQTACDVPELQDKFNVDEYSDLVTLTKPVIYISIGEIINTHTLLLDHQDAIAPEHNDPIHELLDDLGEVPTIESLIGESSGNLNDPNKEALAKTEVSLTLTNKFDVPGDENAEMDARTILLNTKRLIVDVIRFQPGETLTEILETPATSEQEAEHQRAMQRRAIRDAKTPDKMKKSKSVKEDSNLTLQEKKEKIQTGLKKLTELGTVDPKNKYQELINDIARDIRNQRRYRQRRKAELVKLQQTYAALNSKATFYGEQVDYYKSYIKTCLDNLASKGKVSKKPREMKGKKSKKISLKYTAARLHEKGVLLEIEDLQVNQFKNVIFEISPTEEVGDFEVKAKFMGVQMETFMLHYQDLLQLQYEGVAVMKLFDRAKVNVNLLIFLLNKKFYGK
# B1: Pyrin (mouse, BMDM) (protein, UniProt Q9JJ26 1-767)
# chain: MAKTLGDHLLNTLEELLPYDFEKFKFKLQNTSLEKGHSKIPRGHMQMARPVKLASLLITYYGEEYAVRLTLQILRATNQRQLAEELRKATGTEHLIEENRVGGSVQSSVENKAKSVKVPDVPEGDGTQQNNDESDTLPSSQAEVGKGPQKKSLTKRKDQRGPESLDSQTKPWTRSTAPLYRRTQGTQSPGDKESTASAQLRRNVSSAGRLQGLYNNAPGRRESKKAEVYVYLPSGKKRPRSLEITTYSREGEPPNSEVLPTQEETRNGSLIRMRTATLNGRTTGALEKGTGIPEHSMVLDEKTFRNMSSKTSLIGEERCPTSWTENGNGSPETTESSGETAGSILSDPEVPLSLCEKPAKTPEDPASLGQAACEGRSQDKAVCPLCHTQEGDLRGDTCVQSSCSCSIAPGDPKASGRCSICFQCQGLLARKSCEAQSPQSLPQCPRHMKQVLLLFCEDHREPICLICRLSLEHQGHRVRPIEEAALEYKEQIREQLERLREMRGYVEEHRLQGDKKTDDFLKQTEIQKQKISCPLEKLYQLLEKQEQLFVTWLQELSQTISKVRETYYTRVSLLDEMIEELEAKQDQPEWDLMQDIGITLHRAKMMSASELLDTPPGVKEKLHLLYQKSKSVEKNMQCFSEMLSSEMAFSASDVAKWEGRQPSATQVQGLVPTVHLKCDGAHTQDCDVVFYPEREAGGSEPKDYLHPQPAQDTPELHEIHSRNNKRKFKSFLKWKPSFSRTDWRLRTCCYRDLDQAAAHPNLIFSMI
# Target: Yersinia pestis effector YopM (Y. pestis) (UniProt P17778)
# Test: co-IP
row,Molecule,binding
1,"PKN1 kinase (human, THP-1) (from UniProt Q16512 1-942) (enzyme)",binds
2,"PKN1 kinase (mouse, BMDM) (from UniProt P70268 1-946) (enzyme)",binds
3,"RSK1 kinase (human, THP-1) (from UniProt Q15418 1-735) (enzyme)",binds
4,"RSK1 kinase (mouse, BMDM) (from UniProt P18653 1-724) (enzyme)",binds
5,"cytoskeletal scaffolding protein Iqgap1 (human, THP-1) (from UniProt P46940 1-1657)",binds
6,"cytoskeletal scaffolding protein Iqgap1 (mouse, BMDM) (from UniProt Q9JKF1 1-1657)",binds
7,B1,binds
